Laboratory results reported in patent US5717063A, “Octacyclodepsipeptides having an endoparasiticidal action” (Bayer Aktiengesellschaft, priority 1993, dated 1998).
Not every detail of the peptide structures is certain; ends, links or a residue may be inferred.

Tested on: Haemonchus contortus
Assay: In vivo nematode test Haemonchus contortus/sheep
Details: sheep experimentally infected with Haemonchus contortus; oral, pure active compound in gelatin capsules; effective dose = complete cessation of excretion of worm eggs after treatment

| SMILES | Effective dose [mg/kg] |
| --- | --- |
| CCN1C(=O)C(C)OC(=O)C(CC(C)C)N(CC)C(=O)C(Cc2ccccc2)OC(=O)C(CC(C)C)N(CC)C(=O)C(C)OC(=O)C(CC(C)C)N(CC)C(=O)C(Cc2ccccc2)OC(=O)C1CC(C)C (stereo not drawn) [Example 1] | 5 |
| CCCN1C(=O)C(C)OC(=O)C(CC(C)C)N(CCC)C(=O)C(Cc2ccccc2)OC(=O)C(CC(C)C)N(CCC)C(=O)C(C)OC(=O)C(CC(C)C)N(CCC)C(=O)C(Cc2ccccc2)OC(=O)C1CC(C)C (stereo not drawn) [Example 2] | 5 |
| CC(C)CC1C(=O)OC(Cc2ccccc2)C(=O)N(C(C)C)C(CC(C)C)C(=O)OC(C)C(=O)N(C(C)C)C(CC(C)C)C(=O)OC(Cc2ccccc2)C(=O)N(C(C)C)C(CC(C)C)C(=O)OC(C)C(=O)N1C(C)C (stereo not drawn) [Example 3] | 5 |
